Experimental data taken from US20200040069A1.
These are yes or no findings as the source states them, for the method shown. Binding can be weak; no strength is given.

Legend:
[1] = molecular target: human recombinant pro-EMAP II (human); assay: protection from tryptic digestion by immobilized antibody
[2] = molecular target: human recombinant pro-EMAP II (human); assay: Western blot of recombinant pro-EMAP II with M7/1
[3] = molecular target: mature-EMAP II protein (Mus musculus (Mouse)); assay: ELISA of hybridoma supernatants

- binding [1]: binds
- binding [2]: binds
- binding [3]: binds
B1: rat antibody hybridoma clone M7/1 (EMAP II neutralizing M7/1 antibody) (antibody, V domains shown)
VH: AVHLVESGGGFVQPTESLKISCAASGFTFSDAAMYWVRQAPGKGLEWVARIRTKPNNYATYYADSVKGRFTISRDDSKSMVYLQMDNLKTEDTAMYYCTSWSYDFDYWGQGVMVTVSS
VL: DIVMTQGALPNPVPSGESASITCQSSKSLLHSSGKTYLNWYLQRPGQSPHLLIYWMSTRASGVSDRLSGSGSGTDFTLKISSVEAEDVGVYYCQQFLEYPLTFGSGTKLEIK
